According to article PMC10053439:
No constants are given. Whether binding was seen depends on the method and setting. A result given as binding can be weak or reduced; the word gives no strength.

By UniProt entry, the sequences of proteins in these tests, tags left out. Where a name states a change or a piece, a line headed by the entry shows the natural chain unless it says otherwise. Residues count along the entry.
UniProt Q96RL7, residues 1869-2481: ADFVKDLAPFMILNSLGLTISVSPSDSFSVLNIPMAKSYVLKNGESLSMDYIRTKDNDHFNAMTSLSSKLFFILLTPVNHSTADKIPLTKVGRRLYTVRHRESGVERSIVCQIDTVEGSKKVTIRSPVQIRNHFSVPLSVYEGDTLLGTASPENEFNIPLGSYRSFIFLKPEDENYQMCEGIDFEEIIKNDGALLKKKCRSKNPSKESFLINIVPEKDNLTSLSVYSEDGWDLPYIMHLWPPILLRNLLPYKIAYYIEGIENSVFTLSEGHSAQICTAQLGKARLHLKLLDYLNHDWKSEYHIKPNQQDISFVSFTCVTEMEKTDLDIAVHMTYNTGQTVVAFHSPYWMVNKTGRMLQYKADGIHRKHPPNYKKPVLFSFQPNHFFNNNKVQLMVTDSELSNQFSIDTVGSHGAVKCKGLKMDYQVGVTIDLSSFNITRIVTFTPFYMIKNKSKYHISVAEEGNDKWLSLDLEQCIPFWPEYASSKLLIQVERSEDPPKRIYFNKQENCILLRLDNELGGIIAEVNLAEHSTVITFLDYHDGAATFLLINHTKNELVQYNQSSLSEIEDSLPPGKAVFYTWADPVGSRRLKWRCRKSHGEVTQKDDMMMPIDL
UniProt Q9Y5X3: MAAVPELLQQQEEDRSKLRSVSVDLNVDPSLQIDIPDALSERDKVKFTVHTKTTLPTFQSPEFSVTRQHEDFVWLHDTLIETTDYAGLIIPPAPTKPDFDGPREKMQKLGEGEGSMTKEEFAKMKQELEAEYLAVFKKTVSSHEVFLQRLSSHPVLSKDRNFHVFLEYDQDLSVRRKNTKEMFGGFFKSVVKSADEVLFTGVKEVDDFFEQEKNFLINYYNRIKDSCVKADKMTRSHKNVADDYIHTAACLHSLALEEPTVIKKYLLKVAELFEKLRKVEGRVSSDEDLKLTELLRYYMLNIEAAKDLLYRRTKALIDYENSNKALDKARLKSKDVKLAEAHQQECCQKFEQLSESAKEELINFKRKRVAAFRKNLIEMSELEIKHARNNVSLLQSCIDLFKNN

Biological target: LexA-VPS13A(VAB), LexA DNA-binding domain fusion to the VAB domain of VPS13A (human) (UniProt Q96RL7)
Test: two-hybrid; LexA-VPS13A(VAB) as bait, GAD-SNX5 fusions as prey in S. cerevisiae TAT7; screen of a human fetal liver cDNA library (His+ selection with 5 mM 3-AT); β-galactosidase X-gal filter lift assays developed for 2 h and liquid assays in Miller units on the same transformants

binding: binds
Substance: GAD-SNX5 truncated derivative containing only the Phox domain (from UniProt Q9Y5X3) (domain or fragment)
